# Results from PMC6972889, “Structural insight into small molecule action on Frizzleds” (Nature Communications, 2020).
# By UniProt entry, the sequences of proteins in these tests, tags left out. Where a name states a change or a piece, a line headed by the entry shows the natural chain unless it says otherwise.
# UniProt O60353: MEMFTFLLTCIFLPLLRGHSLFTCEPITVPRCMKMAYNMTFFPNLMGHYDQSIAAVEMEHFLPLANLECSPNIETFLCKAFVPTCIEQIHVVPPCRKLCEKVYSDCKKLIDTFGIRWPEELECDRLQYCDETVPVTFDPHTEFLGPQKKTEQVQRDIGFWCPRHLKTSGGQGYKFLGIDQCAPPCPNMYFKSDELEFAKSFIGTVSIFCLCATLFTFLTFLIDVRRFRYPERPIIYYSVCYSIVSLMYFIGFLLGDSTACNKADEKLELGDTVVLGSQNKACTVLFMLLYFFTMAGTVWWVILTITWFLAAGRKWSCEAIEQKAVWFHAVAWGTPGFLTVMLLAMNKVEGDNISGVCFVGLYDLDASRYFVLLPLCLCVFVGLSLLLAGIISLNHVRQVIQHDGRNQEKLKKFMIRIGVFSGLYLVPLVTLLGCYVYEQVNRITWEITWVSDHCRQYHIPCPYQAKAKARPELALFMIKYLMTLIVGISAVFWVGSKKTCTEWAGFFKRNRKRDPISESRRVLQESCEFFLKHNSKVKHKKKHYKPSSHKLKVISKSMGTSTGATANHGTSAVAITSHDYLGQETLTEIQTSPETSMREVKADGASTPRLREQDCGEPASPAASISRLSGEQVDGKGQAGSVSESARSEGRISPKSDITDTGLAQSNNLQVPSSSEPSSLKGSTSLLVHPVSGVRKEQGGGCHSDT
# UniProt O14641: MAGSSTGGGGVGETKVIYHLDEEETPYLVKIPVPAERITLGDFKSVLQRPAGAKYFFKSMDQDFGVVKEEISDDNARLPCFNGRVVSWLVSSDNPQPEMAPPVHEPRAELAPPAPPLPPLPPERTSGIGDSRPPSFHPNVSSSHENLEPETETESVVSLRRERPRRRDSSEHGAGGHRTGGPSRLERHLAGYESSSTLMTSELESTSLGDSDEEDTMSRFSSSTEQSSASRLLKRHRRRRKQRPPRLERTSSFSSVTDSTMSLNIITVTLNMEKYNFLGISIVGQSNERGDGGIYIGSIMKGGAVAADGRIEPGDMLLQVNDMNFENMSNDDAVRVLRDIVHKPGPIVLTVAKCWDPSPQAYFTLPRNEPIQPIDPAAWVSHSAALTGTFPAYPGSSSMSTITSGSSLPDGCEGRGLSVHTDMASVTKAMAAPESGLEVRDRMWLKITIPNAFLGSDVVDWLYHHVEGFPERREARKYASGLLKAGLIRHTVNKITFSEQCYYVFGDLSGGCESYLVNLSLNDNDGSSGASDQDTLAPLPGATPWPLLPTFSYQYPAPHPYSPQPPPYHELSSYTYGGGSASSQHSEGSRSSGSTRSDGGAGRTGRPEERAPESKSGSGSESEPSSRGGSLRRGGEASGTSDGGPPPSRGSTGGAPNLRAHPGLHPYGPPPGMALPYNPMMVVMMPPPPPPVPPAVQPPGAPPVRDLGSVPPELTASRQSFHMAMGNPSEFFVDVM
# Target: ΔCRD FLAG–FZD6–Venus (human) (UniProt O60353)
# Test: FRET or BRET; direct BRET in living, transiently transfected cells; Nluc–DVL2 as donor, Venus-tagged FZD6 as acceptor; WNT-5A in ΔFZD1–10 HEK293 cells, SAG1.3 in ΔSMO HEK293 cells; acceptor:donor ratio on the plateau of the saturation curve; HBSS, read 5 min after the ligand
substance,measurement,value
Nluc–DVL2 (from UniProt O14641 1-736),binding,binds

# These are yes or no findings as the source states them, for the method shown. Binding seen in cells or lysates may run through a third protein. Binding can be weak; no strength is given.
